Measurements from “University of Dundee, Small-Polar-MMV Screening Library” (2021), ChEMBL document CHEMBL3988442.

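Whole-cell growth test on Mycobacterium tuberculosis, read after 3 days in glucose-containing 7H9 medium; the read-out is not stated. Tested at 50 µM. Higher reads as more growth inhibition (inferred: compounds with an IC50 in retests scored well above the rest). Size under these conditions: about 69,000 compounds, about 760 of them at 50% or above in at least one test.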

Values are the deposited “Percent Effect”, in %.
The record does not define 0% and 100%; most values in the screen are far below 50% and negative numbers occur (in some assays of this library far below -100).
Compounds were drawn at random from those tested, without regard to their results.
Two or more numbers in one place are separate tests of the same structure; such repeats can differ widely.

structure | percent effect
COc1ncc(C)cc1NC(=O)COc1ccccc1F | -2.139 & 0.2997
OCC1(O)CCCN(Cc2noc(-c3ccccc3)n2)C1 (centres undefined) | 1.115 & 5.199
COCc1cc(CN(C)C(C(=O)O)c2cc(C)c(OC)c(C)c2)n[nH]1 (centres undefined) | 14.24
COc1cc(OC)nc(N2CCCC(c3nccn3CCN(C)C)C2)n1 (centres undefined) | -29.17
CN(C)C(=O)N1CCN(Cc2cnc(-c3ccsc3)s2)CC1 | 30.5
CCNC(=O)N1CC(c2nc(Cc3ccccc3)no2)C1 | 6.984
CN(C)Cc1cnc2n1CCN(C(=O)C1CC=CC1)CC2 | -7.47
CCC(=O)N1CCN(C(=O)NCc2c(C)cc(C)cc2C)CC1 | -2.375
CCn1cc(NC(=O)C(C)n2ncc(Cl)c2C)c(C(=O)NC)n1 (centres undefined) | -1.912
CC(=O)Nc1ccc(CN2CCOC2=O)cc1 | 16.53
CCOc1ncccc1NC(=O)N1CCN(c2ccc(O)cc2)CC1 | -13.64
CCC1CN(C(=O)c2cncc(C)c2)CCC(=O)N1Cc1ccccc1 (centres undefined) | 10.78
Cc1nn(C)c(C)c1-c1cnc(CC2CCNC2)cn1 (centres undefined) | 3.228
[H][C@@]12CN(CC3CCOCC3)C[C@]1([H])OCCN2c1ccnc(N(C)C)n1 | 14.39
Cc1nc(CN2CCC(N(C)Cc3nnc(C4CC4)n3C)C2)cs1 (centres undefined) | 3.827 & -3.875
O=c1[nH]nc2c(S(=O)(=O)N3CCN(c4ccc(F)cc4)CC3)cccn12 | -21.64
O=C1CCC2(CCNCC2)CN1Cc1nnc2ccccn12 | 3.246
Cc1nc(CN2C(=O)CCC23CCN(c2ncccn2)CC3)cs1.O=C(O)C(F)(F)F | 14.93
CCCn1ccnc1CNC(=O)C1COc2cc(OC)ccc2C1 (centres undefined) | 12.55
COc1ccc(C(=O)C2CCCN(c3cc(C#N)ccn3)C2)cc1F (centres undefined) | -3.435
Cc1ncc2c(n1)CN(Cc1nc3ccccc3o1)CC2 | 26.42
CN(C)S(=O)(=O)N1CCC(c2ccncn2)CC1 | -13.08
O=C(O)C(F)(F)F.O=C(O)C(F)(F)F.[H][C@@]12COC[C@H](C(=O)Nc3cccnc3)[C@]1([H])CN(Cc1cnn(C)c1)C2 | -8.132
CC(C)C(=O)N1CCN(S(C)(=O)=O)CC2(CC(=O)N(C)C2)C1 (centres undefined) | 29.18
CN(C)C[C@@H]1CN(C2CCN(c3ccccc3Cl)CC2)C[C@@H]1CO | 11.45
Cc1cccc(CNC(=O)Nc2ccn(CCN(C)C)n2)c1 | 10.59
CCCOCCn1ncc(N2CCCC2)cc1=O | 2.74
CCNC(=O)CN1CCSC2(CCCCC2)C1 | 22.19
[H][C@@]12CCN(C(C)=O)C[C@]1([H])CCN(C1CCCCC1)C(=O)C2 | 4.265 & -10.47
[H][C@@]12COC[C@]1(c1nc(C)no1)CN(C(=O)C1CCOCC1)C2 | 13.07 & 0.3862
CCc1nccn1C1CCCN(C(=O)CCOCC(F)(F)F)C1 (centres undefined) | -12.13
Cn1cnnc1CC1CCN(Cc2c(Cl)cncc2Cl)CC1 | -13.5 & -6.396
O=C(O)C(F)(F)F.O=C(c1ccncc1)N1CCC2(CCCN(c3ncc(F)cn3)C2)C1 (centres undefined) | -8.101
CCn1ccnc1CN1CCN(CC(O)CN2CCOCC2)CC1 (centres undefined) | 5.608
CCN(CC(=O)NC(C)C)S(=O)(=O)N1CCCCC1C (centres undefined) | 5.449
COc1ccc2c(c1)nc1n2[C@@H](CN(C2CCC2)C2CCC2)COC1 | 2.161 & -5.172
COCCN(C)C[C@@H]1CN(C(=O)c2c(C)cccc2OC)C[C@@H]1CO | 10.09
O=C(NC1CCC1)c1n[nH]c2c1CNCC2 | 15.92
Cc1ccc(-c2ccnc(NC(C)c3c(C)n[nH]c3C)n2)c(C)n1 (centres undefined) | -7.072
Cc1ccc(-n2nnnc2C2(NCc3ccco3)CCCC2)cc1 | 1.937 & -21.87
Cn1cnnc1C1CCCN(C(=O)c2ccccn2)C1 (centres undefined) | 11.85
COCCC(=O)N1CCC2(COCc3cnc(N(C)C)nc32)C1 (centres undefined) | -18.8
NC(=O)CN1CCN(c2ccnc3c(F)ccc(F)c23)CC1 | -12.24 & -5.683
CN(C(=O)C1CSCN1S(=O)(=O)c1ccc(F)cc1)C1CC1 (centres undefined) | 8.662
[H][C@@]12CNC[C@]1([H])[C@H]2CN1CCCn2nc(CNC(=O)N(C)C)cc2C1 | -18.47
Cc1cnc(-c2nc(O)c3c(n2)CN(C(=O)C2CCOC2)CC3)cn1 (centres undefined) | 1.68
CN(Cc1nncn1C)C(=O)c1cc(COc2ccccc2)[nH]n1 | -1.912 & 1.922
O=C(C1CCOCC1)N1CCc2ncnc(-c3ccccc3)c2CC1 | -1.568 & -8.449

The first 4 entries again:

structure	percent effect
COc1ncc(C)cc1NC(=O)COc1ccccc1F	-2.139 & 0.2997
OCC1(O)CCCN(Cc2noc(-c3ccccc3)n2)C1 (centres undefined)	1.115 & 5.199
COCc1cc(CN(C)C(C(=O)O)c2cc(C)c(OC)c(C)c2)n[nH]1 (centres undefined)	14.24
COc1cc(OC)nc(N2CCCC(c3nccn3CCN(C)C)C2)n1 (centres undefined)	-29.17